The values below come from patent US20240067738A1.

Results are given in words; binding and its absence hold for the method and conditions named. Some results given as binding are weak or reduced against the parent protein; the word gives no strength.

The target in this test is T1, canine IL4R (Examples 16, 18 and 19; construct not stated) (canine).
T1 sequence (chain, biotinylated; sites not stated): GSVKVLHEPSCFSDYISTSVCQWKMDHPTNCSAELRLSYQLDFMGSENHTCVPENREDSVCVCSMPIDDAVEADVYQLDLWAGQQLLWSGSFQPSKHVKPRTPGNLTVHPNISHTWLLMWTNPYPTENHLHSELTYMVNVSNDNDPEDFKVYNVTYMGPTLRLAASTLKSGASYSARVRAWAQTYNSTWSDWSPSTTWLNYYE
The experiment in a line: neutralization (canine IL4-blocking) ELISA. (An ELISA detects its analyte on a solid surface through an enzyme-linked reagent.)

B1: M9 mouse monoclonal antibody (antibody, V domains shown)
VH: DVQLVESGGGLVQPGGSRKLSCAASGFTFSSFGMHWVRQAPEKGLEWVAYIRSDSSTIYYADTVKGRFTISRDNPKNTLFLQMTSLRSEDTAMYYCARSGYYGSFSLTYWGQGTLVTVSA
VL: EIVLTQSPTTMAASPGEKITITCSASSSVSSNYLHWYQQKPGFSPKLLIYRTSNLPSGVPARFFGSGSGTSYSLTIGTMEAEDVATYYCQQGSGMLTFGAGTKLELK
On to B1, for which the binding entry is recorded as “binds”.

B2: M3 mouse monoclonal antibody (antibody, V domains shown)
VH: QVQLKESGPGLVAPSQSLSITCTVSGFSLSRYSVHWVRQPPGKGLEWLGMIWGGGSTDYNSVFKSRLSISKDNSKSQVFLKMNSLQTDDTAMYYCARTYRGYALDYWGQGTSVTVSS
VL: DIQMTQTTSSLSASLGDRVTISCRASQDISNYLNWYQQKPDGTVKLLIYYTSRLQSGVPSRFSGSGSGTDYCLTISNLEQEDIATYFCQQANTLPLTFGSGTKLELK
As for B2, the binding result is listed as “binds”.

B3: M5 mouse monoclonal antibody (antibody, V domains shown)
VH: B2 VH
VL: B2 VL
B3: the binding entry was “binds”.

B4: M8 mouse monoclonal antibody (antibody, V domains shown)
VH: QVQLQQSGPELVKPGALVKISCKASGYTFTSYDINWVKQRPGQGLEWIGWIYPGDGSTKYNEKFKGKATLTADKSSSTAYMQLSSLTSEDSAVYFCARSSFVVWGAGTTVTVSS
VL: DIQMTQSSSYLSVSLGGRVTITCKASDPINNWLAWYQQKPGNAPRLLISGATSLETGVPSRISGSGSGKDYSLSITSLQTEDIATYYCHQYWSIPYTFGGGTKLEIK
For the molecule B4, the binding entry is “binds”.
